Source: PubChem BioAssay AID504774 (Drosophila RNAi Screening Center, 2011)
The deposit covers about 23,000 reagents; below is a random part of those with a known target gene and a result. 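Values are quantile-normalised luminescence on an arbitrary scale; higher means more cells surviving MMS.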 Not all columns of the deposit are shown.

- Aim: 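Genes required for cells to withstand methyl methanesulphonate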 (primary screen)
- Cell system: Drosophila Kc167 cells
- Reagent: long dsRNA against Drosophila genes, about 0.25 µg dsRNA per well
- Duration: about 6 days: 3 days knock-down, then 3 days with or without MMS
- Conditions: methyl methanesulphonate 0.004% (w/v) for 3 days after knock-down
- Read-out: 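ATP-dependent luminescence as a measure of live cells in MMS-exposed wells, quantile normalised within each plate, with replicate values also given as a mean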
- Reading the numbers: mean viability with MMS: higher = more surviving cells after MMS

The first 5 entries, to show the layout:
CG13850 [DRSC14700] — mean viability with MMS = 3.61e6
CG2157 [DRSC19836] — mean viability with MMS = 3.59e6
mRpS30 [DRSC20107] — mean viability with MMS = 3.56e6
CG7016 [DRSC16174] — mean viability with MMS = 3.37e6
CG31441 [DRSC15723] — mean viability with MMS = 3.60e6

Main list, from the first entry:
CG13850 [DRSC14700] — mean viability with MMS = 3.61e6
CG2157 [DRSC19836] — mean viability with MMS = 3.59e6
mRpS30 [DRSC20107] — mean viability with MMS = 3.56e6
CG7016 [DRSC16174] — mean viability with MMS = 3.37e6
CG31441 [DRSC15723] — mean viability with MMS = 3.60e6
Gprk2 [DRSC16682] — mean viability with MMS = 3.06e6
Gprk2 [DRSC23336] — mean viability with MMS = 3.68e6
CG12865 (retired record) [DRSC06205] — mean viability with MMS = 3.71e6
NK7.1 [DRSC16755] — mean viability with MMS = 3.62e6
dare [DRSC07602] — mean viability with MMS = 3.50e6
CG3842 [DRSC18326] — mean viability with MMS = 3.65e6
CG14654 (retired record) [DRSC12240] — mean viability with MMS = 3.38e6
CG31301 [DRSC22164] — mean viability with MMS = 3.29e6
SMC6 [DRSC15829] — mean viability with MMS = 3.58e6
CG15362 [DRSC00392] — mean viability with MMS = 3.49e6
CG18747 [DRSC15384] — mean viability with MMS = 3.60e6
Bx42 [DRSC17743] — mean viability with MMS = 2.40e6
CG31974 [DRSC00522] — mean viability with MMS = 3.49e6
Sr-CI [DRSC00790] — mean viability with MMS = 1.94e6
Lcp65Ad [DRSC11211] — mean viability with MMS = 3.65e6
CG15699 (retired record) [DRSC06571] — mean viability with MMS = 3.80e6
CG42749 [DRSC18091] — mean viability with MMS = 3.60e6
CG42749 [DRSC18092] — mean viability with MMS = 3.48e6
CG12056 [DRSC17796] — mean viability with MMS = 3.62e6
Ir94c [DRSC13539] — mean viability with MMS = 3.45e6
CG17598 [DRSC20636] — mean viability with MMS = 3.42e6
CG11275 [DRSC04095] — mean viability with MMS = 3.47e6
CG11095 [DRSC19375] — mean viability with MMS = 3.70e6
EAChm [DRSC10010] — mean viability with MMS = 3.52e6
ATPsynO [DRSC16780] — mean viability with MMS = 3.37e6
Nup44A [DRSC07248] — mean viability with MMS = 3.39e6
snky [DRSC09838] — mean viability with MMS = 3.57e6
MRG15 [DRSC16731] — mean viability with MMS = 3.61e6
CG7488 [DRSC16250] — mean viability with MMS = 3.44e6
unc-45 [DRSC15449] — mean viability with MMS = 3.55e6
CG1983 [DRSC15410] — mean viability with MMS = 3.58e6
COX8 [DRSC11814] — mean viability with MMS = 3.50e6
CG7264 [DRSC10793] — mean viability with MMS = 3.48e6
ninaD [DRSC02886] — mean viability with MMS = 3.45e6
nkd [DRSC11376] — mean viability with MMS = 3.50e6
par-1 [DRSC05792] — mean viability with MMS = 3.07e6
par-1 [DRSC06098] — mean viability with MMS = 3.53e6
par-1 [DRSC06616] — mean viability with MMS = 3.64e6
par-1 [DRSC07660] — mean viability with MMS = 3.66e6
par-1 [DRSC07661] — mean viability with MMS = 3.55e6
